Measurements taken from the supplement of paper PMC6414424.
Where a name gives a salt, the structure may show the parent alone. ± gives the standard deviation of the averaged measurements. Some of the results follow.

Tested on: APPdp1-6 iPSC-derived neurons
Assay: pThr231Tau/total Tau ratio Z-score vs DMSO vehicle wells; higher = more pThr231Tau relative to total Tau
Details: 5 µM; treatment time 5 days

| Structure (SMILES) | pThr231Tau/total Tau ratio Z-score |
| --- | --- |
| Cc1ccccc1C(OCCN(C)C)c1ccccc1 (centres undefined) [Prestw-239] | 0.0199 ± 0.7 |
| NC(=O)NC1NC(=O)NC1=O (centres undefined) [Prestw-2] | 0.593 ± 0.61 |
| CN(C)CCOC(c1ccc(Cl)cc1)c1ccccn1 (centres undefined) [Prestw-801] | 0.148 ± 1.5 |
| O=C1CCc2ccc(OCCCCN3CCN(c4cccc(Cl)c4Cl)CC3)cc2N1 [Prestw-1229] | 1.37 ± 0.61 |
| COc1c2ccoc2cc2oc(=O)ccc12 | -0.194 ± 0.33 |
| COC(=O)C1=C(C)NC(C)=C(C(=O)OCC(C)C)C1c1ccccc1[N+](=O)[O-] (centres undefined) [Prestw-666] | -0.482 ± 1.3 |
| CC1=CC(=C(c2ccc(N)c(C)c2)c2ccc(N)c(C)c2)C=CC1=N | -5.34 ± 1.3 |
| COC(=O)C1=C(C)NC(C)=C(C(=O)OCCN(C)Cc2ccccc2)C1c1cccc([N+](=O)[O-])c1 (centres undefined) [Prestw-383] | 0.707 ± 1.1 |
| C/C=C(/C)C(=O)O[C@H]1[C@H](OC(C)=O)[C@@]2(CO)C(CC1(C)C)C1=CCC3[C@@]4(C)CCC(O[C@@H]5O[C@H](C(=O)O)[C@@H](O[C@@H]6O[C@H](CO)[C@@H](O)[C@H](O)[C@H]6O)[C@H](O)[C@H]5O[C@@H]5O[C@H](CO)[C@@H](O)[C@H](O)[C@H]5O)[C@](C)(CO)C4CC[C@@]3(C)[C@]1(C)C[C@H]2O.C/C=C(\C)C(=O)O[C@H]1[C@H](OC(C)=O)[C@@]2(CO)C(CC1(C)C)C1=CCC3[C@@]4(C)CCC(O[C@@H]5O[C@H](C(=O)O)[C@@H](O[C@@H]6O[C@H](CO)[C@@H](O)[C@H](O)[C@H]6O)[C@H](O)[C@H]5O[C@@H]5O[C@H](CO)[C@@H](O)[C@H](O)[C@H]5O)[C@](C)(CO)C4CC[C@@]3(C)[C@]1(C)C[C@H]2O (some centres undefined) | -1.99 ± 0.31 |
| CN1CCN(c2c(F)cc3c(=O)c(C(=O)O)cn4c3c2SCC4)CC1 [Prestw-1338] | -0.444 ± 0.89 |
| CN1CCC[C@@H]1CCO[C@](C)(c1ccccc1)c1ccc(Cl)cc1 [Prestw-306] | 0.89 ± 3.2 |
| CCOc1ccc(NC(C)=O)cc1 [Prestw-533] | 0.429 ± 0.079 |
| COc1cc2ncnc(Nc3ccc(F)c(Cl)c3)c2cc1OCCCN1CCOCC1 [Prestw-1270] | -0.986 ± 1.3 |
| CC(C(=O)O)c1ccc(C(=O)c2cccs2)cc1 (centres undefined) [Prestw-816] | 0.451 ± 0.33 |
| CCN1CCC[C@H]1CNC(=O)c1c(O)c(Cl)cc(Cl)c1OC [Prestw-1325] | -0.93 ± 1.2 |
| O=C(O)c1ccccc1 [BENZOIC ACID, antifungal] | -0.223 ± 0.51 |
| NCc1ccc(S(N)(=O)=O)cc1 [Prestw-166] | 0.471 ± 0.49 |
| CCc1oc2ccccc2c1C(=O)c1cc(Br)c(O)c(Br)c1 [Prestw-370] | -0.438 ± 0.4 |
| CC/C(=C(\c1ccccc1)c1ccc(OCCN(C)C)cc1)c1ccccc1 [Prestw-146] | -1.84 ± 0.47 |
| C#C[C@]1(O)CC[C@H]2[C@@H]3CCC4=C(CCC(=O)C4)[C@H]3CC[C@@]21C [Prestw-24] | -0.678 ± 1.4 |
| CC[N+](CC)(CC)CCOc1cccc(OCC[N+](CC)(CC)CC)c1OCC[N+](CC)(CC)CC [Prestw-157] | 0.292 ± 0.11 |
| CCOC(=O)[N-]c1c[n+](N2CCOCC2)no1 [Prestw-547] | -0.152 ± 0.45 |
| NS(=O)(=O)c1cc2c(cc1Cl)NC(CC1CCCC1)NS2(=O)=O (centres undefined) [Prestw-994] | -0.306 ± 0.82 |
| CC(C)(C)NCC(O)c1cc(O)cc(O)c1 (centres undefined) [Prestw-391] | 0.612 ± 0.3 |
| O=C(OCCOCCO)c1ccccc1Nc1cccc(C(F)(F)F)c1 [Prestw-1407] | 0.889 ± 0.048 |
| CC1=C(C/C=C(\C)CCC[C@H](C)CCC[C@H](C)CCCC(C)C)C(=O)c2ccccc2C1=O [PHYTONADIONE, vitamin] | -0.54 ± 0.62 |
| O=C(O)[C@H]1/C(=C/CO)O[C@@H]2CC(=O)N21 [Prestw-1315] | 0.00472 ± 0.71 |

Retrieved one by one from the entries so far:

| Structure (SMILES) | pThr231Tau/total Tau ratio Z-score |
| --- | --- |
| CC(C(=O)O)c1ccc(C(=O)c2cccs2)cc1 (centres undefined) [Prestw-816] | 0.451 ± 0.33 |
| NC(=O)NC1NC(=O)NC1=O (centres undefined) [Prestw-2] | 0.593 ± 0.61 |
| C/C=C(/C)C(=O)O[C@H]1[C@H](OC(C)=O)[C@@]2(CO)C(CC1(C)C)C1=CCC3[C@@]4(C)CCC(O[C@@H]5O[C@H](C(=O)O)[C@@H](O[C@@H]6O[C@H](CO)[C@@H](O)[C@H](O)[C@H]6O)[C@H](O)[C@H]5O[C@@H]5O[C@H](CO)[C@@H](O)[C@H](O)[C@H]5O)[C@](C)(CO)C4CC[C@@]3(C)[C@]1(C)C[C@H]2O.C/C=C(\C)C(=O)O[C@H]1[C@H](OC(C)=O)[C@@]2(CO)C(CC1(C)C)C1=CCC3[C@@]4(C)CCC(O[C@@H]5O[C@H](C(=O)O)[C@@H](O[C@@H]6O[C@H](CO)[C@@H](O)[C@H](O)[C@H]6O)[C@H](O)[C@H]5O[C@@H]5O[C@H](CO)[C@@H](O)[C@H](O)[C@H]5O)[C@](C)(CO)C4CC[C@@]3(C)[C@]1(C)C[C@H]2O (some centres undefined) | -1.99 ± 0.31 |
| CCOC(=O)[N-]c1c[n+](N2CCOCC2)no1 [Prestw-547] | -0.152 ± 0.45 |

Next part.

| Structure (SMILES) | pThr231Tau/total Tau ratio Z-score |
| --- | --- |
| CC(=O)Nc1cccc(O)c1 [METACETAMOL    Therap cat: analgesic] | -1.47 ± 0.19 |
| Cc1cnc(C(=O)O)c[n+]1[O-] [Prestw-1127] | 1.19 ± 1.4 |
| O=C(O)C1(C(=O)O)CCC1.[NH2-].[NH2-].[Pt+2] [Antineoplastic] | 1.44 ± 2.1 |
| CC(C)(C)NC[C@H](O)COc1ccccc1C1CCCC1 [Prestw-1043] | -0.745 ± 0.15 |
| CC(C)(C)NCC(O)COc1cccc2c1C[C@H](O)[C@H](O)C2 (some centres undefined) [Prestw-818] | 0.754 ± 0.34 |
| COc1ccc(C(=O)c2ccccc2O)c(O)c1 [Prestw-898] | 0.198 ± 0.75 |
| COCCc1ccc(OCC(O)CNC(C)C)cc1 (centres undefined) [Prestw-733] | -1.04 ± 0.74 |
| CC(=O)SCC(Cc1ccccc1)C(=O)NCC(=O)OCc1ccccc1 (centres undefined) [Prestw-626] | 0.108 ± 0.068 |
| C[C@H](CCC(=O)O)[C@H]1CC[C@H]2[C@@H]3CC[C@@H]4C[C@H](O)CC[C@]4(C)[C@H]3CC[C@]12C [Prestw-796] | -0.948 ± 1.6 |
| COC(=O)C1=C(C)NC(C)=C(C(=O)OC(C)C)C1c1cccc2nonc12 (centres undefined) [Prestw-1021] | -1.3 ± 0.42 |
| COCC(=O)Nc1c(I)c(C(=O)NCC(O)CO)c(I)c(C(=O)N(C)CC(O)CO)c1I (centres undefined) [Prestw-872] | -1 ± 0.28 |
| O=C(O)CCCC[C@@H]1SC[C@@H]2NC(=O)N[C@@H]21 [Prestw-418] | 0.45 ± 1.1 |
| N[C@@H](CSSC[C@H](N)C(=O)O)C(=O)O | -0.246 ± 0.24 |
| CC(C)C(=O)Nc1ccc([N+](=O)[O-])c(C(F)(F)F)c1 [Prestw-180] | 1.77 ± 0.23 |
| CN(C)[C@@H]1C(=O)C(C(N)=O)=C(O)[C@@]2(O)C(=O)C3=C(O)c4c(O)ccc(Cl)c4[C@@H](O)[C@H]3C[C@@H]12 [Prestw-753] | 0.379 ± 1.2 |
| CC(=O)OCC[N+](C)(C)C [Acetylcholine] | 0.576 ± 1 |
| OCCN1C[C@H](O)[C@@H](O)[C@H](O)[C@H]1CO [Prestw-1169] | 0.345 ± 0.69 |
| COc1ccc2nc([S+]([O-])Cc3ncc(C)c(OC)c3C)[nH]c2c1 (centres undefined) [Prestw-493] | 0.966 ± 0.66 |
| NCC[C@H](O)C(=O)N[C@@H]1C[C@H](N)[C@@H](O[C@H]2O[C@H](CN)[C@@H](O)[C@H](O)[C@H]2O)[C@H](O)[C@H]1O[C@H]1O[C@H](CO)[C@@H](O)[C@H](N)[C@H]1O [Prestw-395] | -0.645 ± 0.047 |
| CC(C)C1CCC(C(=O)N[C@H](Cc2ccccc2)C(=O)O)CC1 (some centres undefined) [NATEGLINIDE, antidiabetic] | 0.496 ± 0.24 |
| Fc1ccc([C@@H]2CCNC[C@H]2COc2ccc3c(c2)OCO3)cc1 [Prestw-851] | -0.493 ± 0.51 |
| O=c1[nH]cnc2c1ncn2[C@H]1CC[C@@H](CO)O1 [Prestw-153] | -0.212 ± 1.9 |
| CN(C/C=C/C#CC(C)(C)C)Cc1cccc2ccccc12 [TERBINAFINE HYDROCHLORIDE, antifungal] | 0.806 ± 1.1 |
| NCCC[C@H](N)CC(=O)N[C@H]1CNC(=O)[C@H]([C@H]2C[C@H](O)NC(N)=N2)NC(=O)/C(=C/NC(N)=O)NC(=O)[C@H](CO)NC(=O)[C@H](CO)NC1=O [Prestw-1113] | 1.35 ± 1.6 |
| C[C@H]1COc2c(N3CCN(C)CC3)c(F)cc3c(=O)c(C(=O)O)cn1c23 [Prestw-237] | 1.3 ± 0.85 |
| CN(C)CCCN1c2ccccc2CCc2ccccc21 [Prestw-72] | -1.48 ± 0.069 |
| NC(CO)C(=O)NNCc1ccc(O)c(O)c1O (centres undefined) [Prestw-938] | 3.53 ± 4.5 |

| Structure (SMILES) | pThr231Tau/total Tau ratio Z-score |
| --- | --- |
| Nc1nc2c(c(=O)[nH]1)N(C=O)C(CNc1ccc(C(=O)N[C@@H](CCC(=O)O)C(=O)O)cc1)CN2 (some centres undefined) [Prestw-738] | -0.234 ± 1.4 |
| CN1CCC(OC(c2ccccc2)c2ccccc2)CC1 [Prestw-707] | 0.0273 ± 0.066 |
| O=C(Oc1cccc2cccnc12)c1ccccc1 [BENZOXIQUINE, antiinfective] | -3.21 ± 0.59 |
| Clc1ccc(Nc2nnc(Cc3ccncc3)c3ccccc23)cc1 [Prestw-1358] | -0.298 ± 0.069 |
| Cc1cccc(Nc2ccccc2C(=O)O)c1C [Prestw-54] | -0.281 ± 0.59 |
| C[n+]1ccccc1/C=N/O [Prestw-943] | 0.0209 ± 0.88 |
| O/N=C/c1cc[n+](COC[n+]2ccc(/C=N/O)cc2)cc1 | 0.791 ± 1.6 |
| CC(N)C(=O)OC(C)(C)Cc1ccc(Cl)cc1 (centres undefined) [Potent and selective serotonin reuptake inhibitor] | 0.0473 ± 0.66 |
| O=C1OC(CN2CCOCC2)CN1/N=C/c1ccc([N+](=O)[O-])o1 (centres undefined) [Prestw-764] | -0.0211 ± 1.1 |
| CC[n+]1c(-c2ccccc2)c2cc(N)ccc2c2ccc(N)cc21 | -5 ± 1.4 |
| CNCCCN1c2ccccc2CCc2ccccc21 [Prestw-343] | -0.686 ± 0.95 |
| O=C1NCCN1CCN1CCC(c2cn(-c3ccc(F)cc3)c3ccc(Cl)cc23)CC1 [Prestw-1341] | -0.859 ± 0.23 |
| O=C1CCC(N2C(=O)c3ccccc3C2=O)C(=O)N1 (centres undefined) [Prestw-192] | 0.295 ± 0.5 |
| CCOc1ccc(NC(=O)CC(C)O)cc1 (centres undefined) | 1.48 ± 0.76 |
| Clc1ccc(C(Cn2ccnc2)OCc2csc3c(Cl)cccc23)c(Cl)c1 (centres undefined) [Prestw-1045] | -0.541 ± 0.44 |
| CC(=O)OCC1=C(C(=O)O)N2C(=O)[C@@H](NC(=O)Cc3cccs3)[C@H]2SC1 [Prestw-719] | 0.0282 ± 0.86 |
| CCN(CC)CCNC(=O)COc1ccc(OC)cc1 [Prestw-215] | -0.295 ± 1.2 |
| CC1(C)S[C@@H]2[C@H](NC(=O)Cc3ccccc3)C(=O)N2[C@H]1C(=O)O [Prestw-1078] | 0.165 ± 1.3 |
| CCCCc1nc(Cl)c(CO)n1Cc1ccc(-c2ccccc2-c2nnn[nH]2)cc1 [Prestw-1433] | 0.218 ± 1.1 |
| C=CCCCCCCCCC(=O)O [UNDECYLENIC ACID, antifungal] | 0.141 ± 1.4 |
| C#C[C@]1(OC(C)=O)CC[C@H]2[C@@H]3CCC4=C/C(=N/O)CC[C@@H]4[C@H]3CC[C@@]21CC [Prestw-1452] | -0.808 ± 0.65 |
| O=C(/C=C/C=C/c1ccc2c(c1)OCO2)N1CCCCC1 | 1.33 ± 1.7 |
| CCC(=O)OCC(=O)[C@@]1(OC(=O)CC)[C@@H](C)C[C@H]2[C@@H]3CCC4=CC(=O)C=C[C@]4(C)[C@@]3(Cl)[C@@H](O)C[C@@]21C [Prestw-855] | -0.558 ± 0.35 |
| CCN(CC)Cc1cc(Nc2ccnc3cc(Cl)ccc23)ccc1O [AMODIAQUINE DIHYDROCHLORIDE    Therap cat:  Antimalarial] | 0.585 ± 1.7 |
| CCN(CC)Cc1cc(Nc2ccnc3cc(Cl)ccc23)ccc1O [Prestw-309] | -0.00493 ± 0.41 |
